Results reported in the supplement of paper PMC10849652.
The list shows a part of the results.

The chains behind the UniProt entries cited, without tags or fusion partners. Where a name states a change or a piece, a line headed by the entry shows the natural chain unless it says otherwise.
UniProt O00746: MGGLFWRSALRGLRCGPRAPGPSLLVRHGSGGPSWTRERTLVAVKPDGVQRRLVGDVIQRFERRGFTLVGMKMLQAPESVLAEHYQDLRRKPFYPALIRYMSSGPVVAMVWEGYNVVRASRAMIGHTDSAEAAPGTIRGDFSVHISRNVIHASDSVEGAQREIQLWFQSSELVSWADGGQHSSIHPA
UniProt Q8NE18: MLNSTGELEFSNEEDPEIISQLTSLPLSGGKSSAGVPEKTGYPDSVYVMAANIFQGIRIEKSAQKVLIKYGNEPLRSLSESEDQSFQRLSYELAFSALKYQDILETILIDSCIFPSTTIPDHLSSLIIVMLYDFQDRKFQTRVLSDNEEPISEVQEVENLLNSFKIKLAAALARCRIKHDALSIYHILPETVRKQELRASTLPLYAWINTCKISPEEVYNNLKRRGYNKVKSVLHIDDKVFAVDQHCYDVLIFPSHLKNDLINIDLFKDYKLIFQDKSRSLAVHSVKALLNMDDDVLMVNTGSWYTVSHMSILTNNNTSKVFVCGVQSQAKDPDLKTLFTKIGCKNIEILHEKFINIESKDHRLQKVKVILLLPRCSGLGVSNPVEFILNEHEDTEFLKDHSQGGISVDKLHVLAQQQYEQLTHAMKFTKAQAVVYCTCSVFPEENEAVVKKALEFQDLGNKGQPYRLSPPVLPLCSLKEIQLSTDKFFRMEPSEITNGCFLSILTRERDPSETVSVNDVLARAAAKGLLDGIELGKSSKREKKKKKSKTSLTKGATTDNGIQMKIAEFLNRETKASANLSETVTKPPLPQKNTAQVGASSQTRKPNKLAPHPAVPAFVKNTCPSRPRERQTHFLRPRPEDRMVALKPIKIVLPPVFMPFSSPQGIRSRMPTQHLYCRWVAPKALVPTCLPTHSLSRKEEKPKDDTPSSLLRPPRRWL
UniProt Q12980: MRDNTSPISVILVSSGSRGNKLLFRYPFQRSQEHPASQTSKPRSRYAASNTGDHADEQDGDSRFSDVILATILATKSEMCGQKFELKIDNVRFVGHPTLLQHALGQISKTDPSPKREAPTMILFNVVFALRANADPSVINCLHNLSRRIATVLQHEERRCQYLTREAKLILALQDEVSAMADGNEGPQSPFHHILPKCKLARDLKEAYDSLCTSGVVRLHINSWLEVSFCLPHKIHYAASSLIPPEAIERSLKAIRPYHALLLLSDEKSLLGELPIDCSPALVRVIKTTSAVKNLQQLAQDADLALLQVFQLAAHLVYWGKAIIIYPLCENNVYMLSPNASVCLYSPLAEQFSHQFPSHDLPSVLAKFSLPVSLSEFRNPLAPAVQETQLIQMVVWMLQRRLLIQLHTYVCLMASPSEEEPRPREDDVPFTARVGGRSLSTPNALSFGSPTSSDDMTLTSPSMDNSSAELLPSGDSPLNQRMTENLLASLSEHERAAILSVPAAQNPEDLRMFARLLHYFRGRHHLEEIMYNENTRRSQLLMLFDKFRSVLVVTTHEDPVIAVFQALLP
UniProt Q76FK4: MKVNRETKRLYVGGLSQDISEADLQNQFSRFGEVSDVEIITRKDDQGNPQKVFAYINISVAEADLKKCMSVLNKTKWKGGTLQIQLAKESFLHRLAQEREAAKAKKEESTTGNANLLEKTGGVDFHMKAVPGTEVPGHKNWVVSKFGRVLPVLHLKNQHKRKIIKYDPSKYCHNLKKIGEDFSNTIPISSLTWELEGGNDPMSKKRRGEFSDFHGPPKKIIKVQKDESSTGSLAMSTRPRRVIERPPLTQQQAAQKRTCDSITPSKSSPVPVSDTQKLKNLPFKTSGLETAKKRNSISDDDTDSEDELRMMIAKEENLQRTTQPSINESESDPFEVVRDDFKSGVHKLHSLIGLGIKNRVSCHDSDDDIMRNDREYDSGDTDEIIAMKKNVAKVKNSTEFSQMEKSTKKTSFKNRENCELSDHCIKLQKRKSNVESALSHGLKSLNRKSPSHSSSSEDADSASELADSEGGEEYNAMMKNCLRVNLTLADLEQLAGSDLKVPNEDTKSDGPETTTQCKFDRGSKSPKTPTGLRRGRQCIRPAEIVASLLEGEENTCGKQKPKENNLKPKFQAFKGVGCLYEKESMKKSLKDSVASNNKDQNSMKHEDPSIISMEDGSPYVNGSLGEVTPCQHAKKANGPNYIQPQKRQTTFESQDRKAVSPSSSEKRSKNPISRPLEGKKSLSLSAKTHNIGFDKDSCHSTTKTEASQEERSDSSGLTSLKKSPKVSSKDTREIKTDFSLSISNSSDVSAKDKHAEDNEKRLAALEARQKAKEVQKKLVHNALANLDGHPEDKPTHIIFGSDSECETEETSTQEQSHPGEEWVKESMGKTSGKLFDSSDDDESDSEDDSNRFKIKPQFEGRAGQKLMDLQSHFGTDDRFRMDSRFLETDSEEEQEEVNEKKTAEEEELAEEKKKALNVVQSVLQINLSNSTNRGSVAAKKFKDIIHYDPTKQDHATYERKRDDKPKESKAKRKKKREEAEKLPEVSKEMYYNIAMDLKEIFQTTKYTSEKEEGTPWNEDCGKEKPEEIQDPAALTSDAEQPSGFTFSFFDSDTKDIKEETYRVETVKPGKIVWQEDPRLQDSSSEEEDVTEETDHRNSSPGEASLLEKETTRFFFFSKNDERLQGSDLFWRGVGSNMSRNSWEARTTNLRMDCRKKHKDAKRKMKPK
UniProt P13056: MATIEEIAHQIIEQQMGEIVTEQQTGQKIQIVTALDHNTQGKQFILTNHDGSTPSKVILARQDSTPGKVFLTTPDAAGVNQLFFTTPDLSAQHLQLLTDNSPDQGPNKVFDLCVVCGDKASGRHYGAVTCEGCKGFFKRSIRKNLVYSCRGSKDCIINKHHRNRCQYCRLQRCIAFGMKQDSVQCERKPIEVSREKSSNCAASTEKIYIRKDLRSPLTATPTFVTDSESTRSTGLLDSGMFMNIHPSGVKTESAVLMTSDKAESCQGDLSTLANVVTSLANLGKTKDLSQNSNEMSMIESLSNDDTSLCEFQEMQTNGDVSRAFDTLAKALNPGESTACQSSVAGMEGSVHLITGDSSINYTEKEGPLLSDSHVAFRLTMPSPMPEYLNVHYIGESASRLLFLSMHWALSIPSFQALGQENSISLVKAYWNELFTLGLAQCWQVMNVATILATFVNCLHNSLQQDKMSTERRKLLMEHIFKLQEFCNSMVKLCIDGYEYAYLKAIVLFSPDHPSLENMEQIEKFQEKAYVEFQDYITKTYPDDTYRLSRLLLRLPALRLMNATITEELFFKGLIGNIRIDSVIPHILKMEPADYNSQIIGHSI
UniProt O96028: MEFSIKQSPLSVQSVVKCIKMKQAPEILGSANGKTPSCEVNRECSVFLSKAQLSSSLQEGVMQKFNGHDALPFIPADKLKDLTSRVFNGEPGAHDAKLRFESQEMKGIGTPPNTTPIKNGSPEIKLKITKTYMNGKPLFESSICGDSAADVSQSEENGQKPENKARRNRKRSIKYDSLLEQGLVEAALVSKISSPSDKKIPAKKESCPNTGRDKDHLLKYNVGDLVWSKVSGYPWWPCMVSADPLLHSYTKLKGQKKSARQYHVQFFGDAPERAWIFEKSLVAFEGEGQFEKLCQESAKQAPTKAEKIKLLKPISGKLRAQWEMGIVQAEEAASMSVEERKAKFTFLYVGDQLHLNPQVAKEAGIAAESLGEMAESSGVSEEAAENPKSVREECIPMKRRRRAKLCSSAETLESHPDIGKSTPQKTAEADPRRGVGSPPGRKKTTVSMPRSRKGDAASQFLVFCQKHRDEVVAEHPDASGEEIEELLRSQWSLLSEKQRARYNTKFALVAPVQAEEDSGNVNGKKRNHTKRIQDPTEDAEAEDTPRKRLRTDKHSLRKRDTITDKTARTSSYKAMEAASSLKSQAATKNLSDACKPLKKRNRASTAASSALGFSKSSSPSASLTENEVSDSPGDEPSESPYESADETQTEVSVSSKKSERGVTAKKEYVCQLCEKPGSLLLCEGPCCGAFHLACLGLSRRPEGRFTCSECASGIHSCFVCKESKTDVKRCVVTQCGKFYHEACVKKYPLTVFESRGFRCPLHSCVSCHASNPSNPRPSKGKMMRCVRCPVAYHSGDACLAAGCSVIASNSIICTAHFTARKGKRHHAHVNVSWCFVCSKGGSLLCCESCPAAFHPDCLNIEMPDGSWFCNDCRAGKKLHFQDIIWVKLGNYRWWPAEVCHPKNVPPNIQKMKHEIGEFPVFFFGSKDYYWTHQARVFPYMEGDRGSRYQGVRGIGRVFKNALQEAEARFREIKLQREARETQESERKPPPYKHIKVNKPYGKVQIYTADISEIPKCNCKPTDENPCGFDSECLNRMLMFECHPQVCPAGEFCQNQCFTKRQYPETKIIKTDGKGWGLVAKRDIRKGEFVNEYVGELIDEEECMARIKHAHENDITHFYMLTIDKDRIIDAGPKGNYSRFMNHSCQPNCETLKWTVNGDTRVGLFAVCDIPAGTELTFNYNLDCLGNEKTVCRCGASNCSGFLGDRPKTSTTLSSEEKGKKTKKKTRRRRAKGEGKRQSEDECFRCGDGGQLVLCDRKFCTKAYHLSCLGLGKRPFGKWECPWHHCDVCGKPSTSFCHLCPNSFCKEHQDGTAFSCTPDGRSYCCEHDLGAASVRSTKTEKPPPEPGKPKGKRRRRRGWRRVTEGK
UniProt Q6ZVK8: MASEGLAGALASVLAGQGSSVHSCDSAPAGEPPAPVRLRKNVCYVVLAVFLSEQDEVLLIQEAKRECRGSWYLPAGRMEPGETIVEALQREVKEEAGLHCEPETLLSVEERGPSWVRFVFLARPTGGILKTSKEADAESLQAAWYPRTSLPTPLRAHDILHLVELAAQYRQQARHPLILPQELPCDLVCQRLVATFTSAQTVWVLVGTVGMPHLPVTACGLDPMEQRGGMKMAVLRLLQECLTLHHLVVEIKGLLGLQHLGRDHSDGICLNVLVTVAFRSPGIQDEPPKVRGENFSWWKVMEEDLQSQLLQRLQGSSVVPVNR
UniProt P15531, whole entry, looked up: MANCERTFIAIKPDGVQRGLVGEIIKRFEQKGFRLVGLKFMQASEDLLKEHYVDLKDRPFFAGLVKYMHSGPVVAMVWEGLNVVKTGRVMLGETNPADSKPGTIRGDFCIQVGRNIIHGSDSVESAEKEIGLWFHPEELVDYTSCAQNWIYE
UniProt Q8WTW4: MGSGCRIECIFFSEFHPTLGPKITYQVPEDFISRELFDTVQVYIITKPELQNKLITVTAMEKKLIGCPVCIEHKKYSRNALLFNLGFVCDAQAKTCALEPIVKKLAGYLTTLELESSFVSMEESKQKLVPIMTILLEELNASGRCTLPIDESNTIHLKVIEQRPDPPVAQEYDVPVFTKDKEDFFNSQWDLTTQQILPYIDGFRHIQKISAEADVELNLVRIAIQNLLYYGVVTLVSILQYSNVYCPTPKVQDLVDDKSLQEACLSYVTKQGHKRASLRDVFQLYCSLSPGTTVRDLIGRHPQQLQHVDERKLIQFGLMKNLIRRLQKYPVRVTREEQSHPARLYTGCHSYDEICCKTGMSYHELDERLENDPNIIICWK
UniProt Q9NWW6: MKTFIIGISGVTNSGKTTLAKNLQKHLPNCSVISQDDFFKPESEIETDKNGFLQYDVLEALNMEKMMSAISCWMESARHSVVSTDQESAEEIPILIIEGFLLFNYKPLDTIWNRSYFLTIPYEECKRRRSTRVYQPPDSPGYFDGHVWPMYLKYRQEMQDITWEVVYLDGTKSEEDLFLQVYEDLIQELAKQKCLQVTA
UniProt Q96AB6: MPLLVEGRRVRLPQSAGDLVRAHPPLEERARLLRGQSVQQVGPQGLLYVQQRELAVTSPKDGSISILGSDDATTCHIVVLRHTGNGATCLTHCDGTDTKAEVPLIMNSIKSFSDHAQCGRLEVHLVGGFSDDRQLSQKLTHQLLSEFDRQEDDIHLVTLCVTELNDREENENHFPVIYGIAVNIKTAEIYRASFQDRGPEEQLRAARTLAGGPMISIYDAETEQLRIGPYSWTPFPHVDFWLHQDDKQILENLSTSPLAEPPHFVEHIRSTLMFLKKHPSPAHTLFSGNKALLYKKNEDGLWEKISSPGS
UniProt P48645: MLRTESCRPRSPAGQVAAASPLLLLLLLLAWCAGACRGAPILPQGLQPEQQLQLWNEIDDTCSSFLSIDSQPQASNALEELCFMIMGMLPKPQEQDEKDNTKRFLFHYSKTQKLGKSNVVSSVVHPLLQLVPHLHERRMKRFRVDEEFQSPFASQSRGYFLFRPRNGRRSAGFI
UniProt O95848: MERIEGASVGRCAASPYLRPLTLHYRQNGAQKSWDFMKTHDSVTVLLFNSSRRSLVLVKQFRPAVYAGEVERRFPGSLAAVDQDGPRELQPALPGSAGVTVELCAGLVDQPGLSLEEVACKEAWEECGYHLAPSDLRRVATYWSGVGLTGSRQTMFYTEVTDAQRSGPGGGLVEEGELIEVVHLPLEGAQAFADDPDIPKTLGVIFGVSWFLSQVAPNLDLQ

Tests used:
Experiment in all cases: log2 fold change, soluble protein after heating vs DMSO (PISA); higher = thermal stabilisation; K562 lysate, 10 uM; active = over 0.2 and 3.5 SD of the protein, either way, in both replicates (recomputed)
nilotinib = compound: Cc1cn(-c2cc(NC(=O)c3ccc(C)c(Nc4nccc(-c5cccnc5)n4)c3)cc(C(F)(F)F)c2)cn1 [nilotinib]
How it was run: (§1)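 Dounce homogenisation of K562 pellets in PBS pH 7.4 with 1 mM MgCl2 produced a crude extract, used at 1 mg/mL protein. Exposure to 10 μM compound lasted 30 min, and aliquots were then heated for 3 min across 48°C-58°C, pooled and brought to 0.5% NP-40 at 4°C. The supernatant after 21,000xg for 90 min was quantified by TMTpro 16plex LC-MS/MS with channel sums equalised. Duplicate values are given as log-two fold change in thermal stability relative to solvent controls.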

[1] = compound: Cc1nc(Nc2n[nH]c3c2CN(C(=O)N[C@H](CN(C)C)c2ccccc2)C3(C)C)c2sccc2n1
How it was run: as §1

[2] = compound: Cc1ncc(-c2ccnc(Nc3ccc(S(C)(=O)=O)cc3)n2)n1C(C)C
How it was run: as §1

tipifarnib = compound: Cn1cncc1[C@@](N)(c1ccc(Cl)cc1)c1ccc2c(c1)c(-c1cccc(Cl)c1)cc(=O)n2C [tipifarnib]
How it was run: as §1

[3] = compound: NC1(c2ccc(-c3nc4ccn5c(=O)[nH]nc5c4cc3-c3ccccc3)cc2)CCC1
How it was run: as §1

[4] = compound: NCC(=O)Nc1ccc(-n2nc(C(F)(F)F)cc2-c2ccc3c(ccc4ccccc43)c2)cc1
How it was run: as §1

vorinostat = compound: O=C(CCCCCCC(=O)Nc1ccccc1)NO [vorinostat]
How it was run: as §1

silmitasertib = compound: O=C(O)c1ccc2c(c1)nc(Nc1cccc(Cl)c1)c1ccncc12 [silmitasertib]
How it was run: as §1

entospletinib = compound: c1cn2cc(-c3ccc4cn[nH]c4c3)nc(Nc3ccc(N4CCOCC4)cc3)c2n1 [entospletinib]
How it was run: as §1

quisinostat = compound: Cn1cc(CNCC2CCN(c3ncc(C(=O)NO)cn3)CC2)c2ccccc21 [quisinostat]
How it was run: as §1

[5] = compound: NC(=O)Nc1cc(-c2cccc(F)c2)sc1C(=O)N[C@H]1CCCNC1
How it was run: as §1

[6] = compound: O=C1NC(=O)C(c2cnc3ccccn23)=C1c1cn2c3c(cc(F)cc13)CN(C(=O)N1CCCCC1)CC2
How it was run: as §1

dasatinib = compound: Cc1nc(Nc2ncc(C(=O)Nc3c(C)cccc3Cl)s2)cc(N2CCN(CCO)CC2)n1 [dasatinib]
How it was run: as §1

[7] = compound: Cn1cc(-c2ccc3c(c2)CCN3C(=O)Cc2cccc(C(F)(F)F)c2)c2c(N)ncnc21
How it was run: as §1

[8] = compound: NC(=O)c1cnc(N[C@@H]2CCCC[C@@H]2N)nc1Nc1cccc(-n2nccn2)c1
How it was run: as §1

Measured: log2 fold change

NOS3 (UniProt P29474)
inactive: nilotinib -0.304 | [1] 0.032 | [2] -0.016 | tipifarnib 0.24 | [3] -0.06 | [4] 0.085 | vorinostat 0.189 | silmitasertib 0.029

NR1D1 (UniProt P20393)
inactive: entospletinib 0.273

NME4 (UniProt O00746)
inactive: quisinostat -0.001 | [5] 0.074 | [3] -0.165 | vorinostat 0.101 | silmitasertib 0.058 | [6] -0.11 | entospletinib -0.099

NUDT6 (UniProt P53370)
inactive: dasatinib -0.013 | [7] 0.032 | quisinostat 0.021 | [5] -0.03 | [3] -0.058 | [4] 0.128 | vorinostat 0.038 | silmitasertib -0.096 | [6] 0.02 | entospletinib -0.225

NSUN7 (UniProt Q8NE18)
active: quisinostat -0.573
inactive: [5] 0.01 | [8] 0.009 | [3] -0.031 | [4] 0.241 | vorinostat -0.003 | silmitasertib 0.005 | [6] -0.108 | entospletinib -0.042

NPRL3 (UniProt Q12980)
inactive: nilotinib 0.031 | [1] -0.01 | [2] 0.24 | quisinostat -0.269 | tipifarnib -0.054 | [5] 0.061 | [3] 0.081 | [4] -0.098 | vorinostat -0.153 | silmitasertib 0.032 | [6] -0.045

NOL8 (UniProt Q76FK4)
inactive: dasatinib 0.073 | [7] 0.005 | quisinostat -0.09 | [5] 0.039 | [8] -0.123 | [3] -0.006 | [4] 0.023 | vorinostat 0.046 | silmitasertib 0.067 | [6] 0.018

NR2C1 (UniProt P13056)
inactive: nilotinib -0.016 | [1] 0.112 | [2] 0.105 | quisinostat 0.206 | tipifarnib -0.112 | [5] 0.068 | [4] 0.061 | [6] -0.111

NPLOC4 (UniProt I3L3I1)
inactive: dasatinib 0.057 | [7] -0.116 | [5] 0.196 | [6] 0.253 | entospletinib -0.146
active: quisinostat -0.986

NSD2 (UniProt O96028)
inactive: nilotinib 0.117 | [1] -0.055 | [2] -0.106 | quisinostat -0.077 | tipifarnib 0.031 | [5] -0.03 | [8] -0.335 | [4] -0.166 | [6] 0.12 | entospletinib 0.097

NUDT18 (UniProt Q6ZVK8)
inactive: quisinostat 0.072 | [5] -0.042 | [3] 0.064 | [4] 0.136 | vorinostat 0.016 | silmitasertib -0.063 | [6] 0.054 | entospletinib 0.103

NME1 isoform 2 (UniProt P15531)
inactive: dasatinib 0.023 | [7] -0.02 | quisinostat 0.098 | [5] 0 | [8] -0.053 | [3] 0.06 | [4] 0 | vorinostat 0.127 | silmitasertib -0.093 | [6] 0.061 | entospletinib 0.102

NT5C2 (UniProt Q5JUV3)
inactive: dasatinib -0.092 | [7] -0.096 | quisinostat -0.032 | [5] 0.034 | [6] -0.03 | entospletinib 0.029

NRIP3 (UniProt Q9NQ35)
inactive: [4] -0.033 | entospletinib -0.032

NUB1 isoform 2 (UniProt Q9Y5A7)
inactive: quisinostat 0.205 | [5] -0.019 | [6] -0.068

NPRL2 (UniProt Q8WTW4)
inactive: nilotinib -0.142 | [1] -0.017 | [2] 0.179 | quisinostat -0.046 | tipifarnib -0.049 | [5] 0.071 | [6] 0.154

NMRK1 (UniProt Q9NWW6)
inactive: quisinostat -0.087 | [5] -0.083 | [6] 0.009

NR2C2 isoform 2 (UniProt P49116)
inactive: dasatinib -0.033 | [7] 0.064 | quisinostat -0.054 | [5] 0.04 | [8] -0.025 | [3] -0.048 | [4] -0.024 | vorinostat -0.233 | silmitasertib 0.041 | [6] 0.008 | entospletinib 0.028

NTAN1 (UniProt Q96AB6)
inactive: dasatinib 0.06 | [7] -0.056 | quisinostat 0.026 | [5] 0.02 | [3] 0.07 | [4] -0.131 | vorinostat 0.161 | silmitasertib 0.002 | [6] -0.007 | entospletinib -0.323

NUDT5 (UniProt C9JYY9)
inactive: nilotinib -0.049 | [1] 0.02 | [2] 0.228 | tipifarnib -0.068 | [3] -0.119 | vorinostat -0.041 | silmitasertib 0.129 | entospletinib 0.01

NMU (UniProt P48645)
inactive: quisinostat 0.054 | [5] 0 | [3] -0.027 | [4] 0.018 | vorinostat 0.086 | silmitasertib -0.064 | [6] 0.013 | entospletinib -0.027

2 consecutive records from above, for reference:
NR1D1 (UniProt P20393)
inactive: entospletinib 0.273

NME4 (UniProt O00746)
inactive: quisinostat -0.001 | [5] 0.074 | [3] -0.165 | vorinostat 0.101 | silmitasertib 0.058 | [6] -0.11 | entospletinib -0.099

Remaining list, next part.

NUDT14 (UniProt O95848)
inactive: dasatinib 0.124 | [7] -0.035 | quisinostat -0.131 | [5] 0.06 | [8] -0.062 | [3] 0.315 | vorinostat 0.084 | silmitasertib 0.026 | [6] -0.116

NUDT22 (UniProt Q9BRQ3)
inactive: nilotinib 0.055 | [1] -0.065 | [2] 0.021 | quisinostat 0.02 | tipifarnib -0.046 | [5] 0.033 | [8] -0.024 | [3] -0.267 | [4] 0.011 | vorinostat -0.414 | silmitasertib -0.11 | [6] 0.104 | entospletinib 0.023
